# Values of other authors as cited in publication PMC12389355, “Physiologically Based Pharmacokinetic Modeling to Assess Perpetrator and Victim Cytochrome P450 2C Induction Risk” (Pharmaceutics, 2025).
# Conditions: victim drug after administration with rifampicin; References of Table 4 ([27]-[43]), DIDB; cited from earlier work
smiles,measurement,value
"CC(C)c1c(C(=O)Nc2ccccc2)c(-c2ccccc2)c(-c2ccc(F)cc2)n1CC[C@@H](O)C[C@@H](O)CC(=O)O [Atorvastatin (acid), atorvastatin]",% AUC Reduction (Clinically Observed),80.2%
